Structures were worked out from names or drawings and are uncertain.
Target: HSP-90 (Homo sapiens, UniProt P07900)
Test: HSP-90 SPA (scintillation proximity assay) competition binding assay, displacement of tritiated propyl-Geldanamycin
Settings: SPA competition vs 200 nM 3H-pGA, 30 nM HSP-90; Examples 137 to 214, 217-218

Work on O=C(OCc1ccccc1)[C@H]1CCCN1C(=O)c1ccc(O)cc1O yielded a Ki of 270 nM.
